No constants are given. Whether binding was seen depends on the method and setting. Binding seen in cells or lysates may run through a third protein. A result given as binding can be weak or reduced; the word gives no strength. Where a sequence is shown, tags or fusion partners need not be part of it.
T1: DVE-1::GFP(KI) (C. elegans (endogenous in worms)) (UniProt Q86MI0)
T1 sequence: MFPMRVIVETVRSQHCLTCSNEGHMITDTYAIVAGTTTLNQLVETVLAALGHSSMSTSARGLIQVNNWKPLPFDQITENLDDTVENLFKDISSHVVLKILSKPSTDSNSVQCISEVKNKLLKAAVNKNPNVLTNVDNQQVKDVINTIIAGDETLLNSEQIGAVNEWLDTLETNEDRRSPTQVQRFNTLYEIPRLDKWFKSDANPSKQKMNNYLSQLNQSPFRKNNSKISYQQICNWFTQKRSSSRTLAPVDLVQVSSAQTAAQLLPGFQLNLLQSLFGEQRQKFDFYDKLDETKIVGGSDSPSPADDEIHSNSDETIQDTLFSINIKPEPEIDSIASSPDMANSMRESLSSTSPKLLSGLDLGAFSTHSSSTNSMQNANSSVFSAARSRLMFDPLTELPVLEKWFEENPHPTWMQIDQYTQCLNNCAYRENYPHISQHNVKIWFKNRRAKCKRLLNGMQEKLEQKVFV

The chains behind the UniProt entries cited, without tags or fusion partners. Where a name states a change or a piece, a line headed by the entry shows the natural chain unless it says otherwise.
UniProt Q965X6: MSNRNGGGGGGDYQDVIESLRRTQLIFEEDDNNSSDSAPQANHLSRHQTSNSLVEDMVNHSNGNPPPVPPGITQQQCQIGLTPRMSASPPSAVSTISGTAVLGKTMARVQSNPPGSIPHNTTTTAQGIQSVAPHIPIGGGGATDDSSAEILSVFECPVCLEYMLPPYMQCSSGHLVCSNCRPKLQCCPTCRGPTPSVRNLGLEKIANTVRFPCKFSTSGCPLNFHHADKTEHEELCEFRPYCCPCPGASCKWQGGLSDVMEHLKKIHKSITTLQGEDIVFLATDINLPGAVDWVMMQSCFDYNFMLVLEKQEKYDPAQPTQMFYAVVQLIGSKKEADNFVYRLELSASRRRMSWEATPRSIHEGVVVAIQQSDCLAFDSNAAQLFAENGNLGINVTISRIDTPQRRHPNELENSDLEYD


Tests used:
[1] = biological target: T1, DVE-1::GFP(KI) (C. elegans (endogenous in worms)); assay: co-IP; C. elegans worm lysates (with or without 10 μM MG132 before lysis); GFP-Trap Agarose (anti-GFP nanobody) overnight at 4 °C; washes with 50 mM Tris-HCl pH 8.0, 300 mM NaCl; blot with anti-GFP and anti-SIAH-1
[2] = biological target: GST-SIAH-1(ΔE3) (C. elegans); assay: pull-down; 5 μg purified GST fusion on glutathione-Sepharose beads incubated with HEK293T lysates holding Myc-tagged DVE-1 constructs; washes with 50 mM Tris-HCl pH 7.6, 250 mM NaCl, 0.5% NP-40, 1 mM EDTA; blot with anti-Myc; only the target purified

Row | binding [1] | binding [2] | Molecule
1 | binds | – | SIAH-1(ΔE3) (endogenous, siah-1(syb4782) mutant) (from UniProt Q965X6) (enzyme)
2 | – | binds | Myc-DVE-1 (protein, UniProt Q86MI0 1-468) MFPMRVIVETVRSQHCLTCSNEGHMITDTYAIVAGTTTLNQLVETVLAALGHSSMSTSARGLIQVNNWKPLPFDQITENLDDTVENLFKDISSHVVLKILSKPSTDSNSVQCISEVKNKLLKAAVNKNPNVLTNVDNQQVKDVINTIIAGDETLLNSEQIGAVNEWLDTLETNEDRRSPTQVQRFNTLYEIPRLDKWFKSDANPSKQKMNNYLSQLNQSPFRKNNSKISYQQICNWFTQKRSSSRTLAPVDLVQVSSAQTAAQLLPGFQLNLLQSLFGEQRQKFDFYDKLDETKIVGGSDSPSPADDEIHSNSDETIQDTLFSINIKPEPEIDSIASSPDMANSMRESLSSTSPKLLSGLDLGAFSTHSSSTNSMQNANSSVFSAARSRLMFDPLTELPVLEKWFEENPHPTWMQIDQYTQCLNNCAYRENYPHISQHNVKIWFKNRRAKCKRLLNGMQEKLEQKVFV

— publication PMC12179603
